This assay concerns the target E2F1 (human (endogenous in PC9)) (UniProt Q01094). In words: co-IP; PC9 cell lysate in RIPA buffer with protease inhibitors; IP with E2F1-specific, MDM2-specific or nonspecific IgG antibody at 4 °C for 4 h or overnight, protein A/G agarose beads, four washes with PBS containing 0.1% Triton X-100; blots probed for E2F1 and MDM2.

By UniProt entry, the sequences of proteins in these tests, tags left out.
UniProt Q01094: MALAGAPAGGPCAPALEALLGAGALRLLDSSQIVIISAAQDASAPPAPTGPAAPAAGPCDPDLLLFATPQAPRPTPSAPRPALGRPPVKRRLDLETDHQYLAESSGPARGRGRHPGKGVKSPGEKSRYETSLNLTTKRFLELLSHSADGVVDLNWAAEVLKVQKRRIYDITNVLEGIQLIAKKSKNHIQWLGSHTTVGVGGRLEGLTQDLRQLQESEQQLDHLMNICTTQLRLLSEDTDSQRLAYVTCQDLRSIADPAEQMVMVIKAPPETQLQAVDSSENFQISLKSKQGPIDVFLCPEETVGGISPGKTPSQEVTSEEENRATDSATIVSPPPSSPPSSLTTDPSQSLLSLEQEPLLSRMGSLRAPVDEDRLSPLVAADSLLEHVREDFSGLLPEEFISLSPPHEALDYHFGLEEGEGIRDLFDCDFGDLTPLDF
UniProt Q00987: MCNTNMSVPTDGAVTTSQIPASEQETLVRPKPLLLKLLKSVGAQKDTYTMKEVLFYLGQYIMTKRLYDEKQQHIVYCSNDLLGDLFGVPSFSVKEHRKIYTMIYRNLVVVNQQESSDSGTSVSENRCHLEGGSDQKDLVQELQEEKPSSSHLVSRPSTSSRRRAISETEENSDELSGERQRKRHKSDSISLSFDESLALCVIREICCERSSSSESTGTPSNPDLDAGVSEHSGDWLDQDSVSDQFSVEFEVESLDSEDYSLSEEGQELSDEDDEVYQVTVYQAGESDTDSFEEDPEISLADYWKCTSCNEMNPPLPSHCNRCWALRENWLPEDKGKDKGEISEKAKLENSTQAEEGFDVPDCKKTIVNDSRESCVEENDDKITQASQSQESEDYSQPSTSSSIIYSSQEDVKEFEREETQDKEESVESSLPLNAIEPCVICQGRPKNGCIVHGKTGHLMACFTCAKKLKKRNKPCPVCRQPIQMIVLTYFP

Drawing on publication PMC12676955, this text covers binding for one substance.

These are yes or no findings as the source states them, for the method shown. Binding seen in cells or lysates may run through a third protein. Some entries that bind do so weakly or less than the wild type.

For the substance MDM2 (from UniProt Q00987 1-491), the binding result is recorded as “binds”.
